Construct, isoform or probe ends are uncertain for at least one entry. At least one result comes from cells or an extract, where the contact may be indirect. For part of these data: The comparison behind a weaker result is the experiment's own reference, which may not be listed here.
Molecular target: DREAM (Downstream Regulatory Element Antagonist Modulator) (UniProt Q9Y2W7)
Assay: EMSA
Settings: 5 µg BeWo nuclear fraction, 50 ng probe, 0.1 µg poly d(I-C), 10 µL; 750 mM KCl, 2.5 mM EDTA; protein in a lysate after overexpression; protein details: His; label: 3' biotin

Chains of the proteins cited; added tags and fusions are not shown. Lines headed by an entry give the natural chain unless they say otherwise; changes in a name come on top.
UniProt Q9Y2W7: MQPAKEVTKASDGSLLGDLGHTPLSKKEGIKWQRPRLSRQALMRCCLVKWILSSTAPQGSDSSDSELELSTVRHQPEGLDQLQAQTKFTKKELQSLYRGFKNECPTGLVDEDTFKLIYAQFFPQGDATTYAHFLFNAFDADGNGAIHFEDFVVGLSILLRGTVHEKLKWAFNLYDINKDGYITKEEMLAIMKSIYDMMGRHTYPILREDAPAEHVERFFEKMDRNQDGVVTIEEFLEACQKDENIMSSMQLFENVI

Does “TGACAGGTACTGATCCCTCGTCGTGTTGTCCAGGATATTGTCA (double strand) [GCM1 43 bp Mutation 1]” bind?
Result: binds

Does “CGACAGGTGCTGATCCCTCGTCGTGTTGTCCAGGATATTGTCG (double strand) [GCM1 43 bp Mutation 4]” bind?
Result: binds more weakly

Does “CGATAGGTGCTTATCCCTCTTCGTGTTGTCCAGGATATTTTCG / CGAAAATATCCTGGACAACACGAAGAGGGATAAGAACCTATCG [GCM1 43 bp Mutation 5]” bind?
Result: binds more weakly

Does “TGACAGGTGCTGATCCCTCGTCATGTTGTCCAGGATATTGTCA (double strand) [GCM1 43 bp Mutation 3]” bind?
Result: binds

Does “TGACAGGTACTGATCCCTCGTCGTGTTGTCCAGGATATTGTCG (double strand) [GCM1 43 bp Mutation 2]” bind?
Result: binds

Molecular target: DREAM (Downstream Regulatory Element Antagonist Modulator) (UniProt Q9Y2W7)
Assay: EMSA, supershift, competition
Settings: two bands, outcompeted by unlabeled probe 1:100 and 1:1000, weaker with DREAM siRNA extract; 5 µg BeWo nuclear fraction, 50 ng probe, 0.1 µg poly d(I-C), 10 µL; 750 mM KCl, 2.5 mM EDTA; protein in a lysate after overexpression; protein details: His; label: 3' biotin

Does “TGACAGGTACTGATCCCTCGTCATGTTGTCCAGGATATTGTCA (double strand) [GCM1 43 bp Control probe]” bind?
Result: binds

Source: publication PMC3536794
